# Measured values reported in patent US12084411B2, “Hinokitiol analogues, methods of preparing and pharmaceutical compositions thereof” (The Board of Trustees of the University of Illinois, priority 2018, dated 2024).
# For at least one compound, name, drawing or mass did not settle the structure.
# System: hinokitiol-rescued fet3Δftr1Δ yeast
# Test: Chemical inhibition of yeast cell growth with inhibitors of Pma1, V-ATPase
# Assay type: cell-based, Saccharomyces cerevisiae
# Conditions: 10 μM hinokitiol, 10 μM FeCl3
# Experimental: Increasing dosages of caspofungin (Sigma SML0425), ebselen (Sigma 70530), or bafilomycin B1 (Santa Cruz sc-202072) (40X stocks in DMSO) were added to a yeast suspension (10-fold dilution from OD600=0.1) to give the indicated final dose. EC50 values were calculated from fitting of yeast growth curves using GraphPad PRISM.
structure (smiles),measurement,value
O=c1c2ccccc2[se]n1-c1ccccc1 [ebselen],sensitivity of hinokitiol-rescued fet3Δftr1Δ yeast relative to hinokitiol-treated wild type yeast,increased sensitivity
